Laboratory results as given in patent US11524082B2 (priority 2017, dated 2022).

Assays:
[1] = general procedure: Fmoc solid-phase peptide synthesis; H-Cys(Trt)-2-chlorotrityl resin; 1-[Bis(dimethylamino)methylene]-1H-1,2,3-triazolo[4,5-b]pyridinium 3-oxid hexafl; details: whole synthesis, scale of the general procedure 100 mg resin
[2] = general procedure: Fmoc solid-phase peptide synthesis; H-Cys(Trt)-2-chlorotrityl resin (0.64 mmole/g); 1-[Bis(dimethylamino)methylene]-1H-1,2,3-triazolo[4,5-b]pyridinium 3-oxid hexafl; details: whole synthesis, scale of the general procedure 100 mg resin

Substance | isolated yield [1] | isolated yield [2]
(2R,5S,8S)-8-amino-5,12-bis(carboxymethyl)-18-(3-(2-(2-(3-((2-(cyclooctylamino)-3,5,6-trifluoro-4-sulfamoylphenyl)sulfonyl)propanamido)ethoxy)ethoxy)propanamido)-15-(3-guanidinopropyl)-2-(mercaptomethyl)-4,7,11,14,17-pentaoxo-3,6,10,13,16-pentaazaicosanedioic | 62% | 
((2S)-2-amino-3-(3-carboxy-2-(2-(3-carboxy-2-(3-(2-(2-(3-((2-(cyclooctylamino)-3,5,6-trifluoro-4-sulfamoylphenyl)sulfonyl)propanamido)ethoxy)ethoxy)propanamido)propanamido)-5-guanidinopentanamido)propanamido)propanoyl)-L-aspartic acid |  | 62%
